Assay [1] concerns the target FLAG-tagged full-length human TET2 (human) (UniProt Q6N021). The assay can be described thus: co-IP; FLAG M2 IP on independent lysates from wild-type K562 or K562 cells overexpressing FLAG-tagged full-length human TET2; western blot of input and 10x concentrated eluates.
Assay [2] has the same target. Nature of the assay: co-IP; FLAG M2 IP on lysates from the human dendritic cell line CAL-1 overexpressing FLAG-tagged full-length human TET2; western blot of input and eluates. (In general: Immunoblotting shows a protein as a band on a membrane.)

Amino acid sequences for entries named in this document (tags omitted).
UniProt Q86XN7: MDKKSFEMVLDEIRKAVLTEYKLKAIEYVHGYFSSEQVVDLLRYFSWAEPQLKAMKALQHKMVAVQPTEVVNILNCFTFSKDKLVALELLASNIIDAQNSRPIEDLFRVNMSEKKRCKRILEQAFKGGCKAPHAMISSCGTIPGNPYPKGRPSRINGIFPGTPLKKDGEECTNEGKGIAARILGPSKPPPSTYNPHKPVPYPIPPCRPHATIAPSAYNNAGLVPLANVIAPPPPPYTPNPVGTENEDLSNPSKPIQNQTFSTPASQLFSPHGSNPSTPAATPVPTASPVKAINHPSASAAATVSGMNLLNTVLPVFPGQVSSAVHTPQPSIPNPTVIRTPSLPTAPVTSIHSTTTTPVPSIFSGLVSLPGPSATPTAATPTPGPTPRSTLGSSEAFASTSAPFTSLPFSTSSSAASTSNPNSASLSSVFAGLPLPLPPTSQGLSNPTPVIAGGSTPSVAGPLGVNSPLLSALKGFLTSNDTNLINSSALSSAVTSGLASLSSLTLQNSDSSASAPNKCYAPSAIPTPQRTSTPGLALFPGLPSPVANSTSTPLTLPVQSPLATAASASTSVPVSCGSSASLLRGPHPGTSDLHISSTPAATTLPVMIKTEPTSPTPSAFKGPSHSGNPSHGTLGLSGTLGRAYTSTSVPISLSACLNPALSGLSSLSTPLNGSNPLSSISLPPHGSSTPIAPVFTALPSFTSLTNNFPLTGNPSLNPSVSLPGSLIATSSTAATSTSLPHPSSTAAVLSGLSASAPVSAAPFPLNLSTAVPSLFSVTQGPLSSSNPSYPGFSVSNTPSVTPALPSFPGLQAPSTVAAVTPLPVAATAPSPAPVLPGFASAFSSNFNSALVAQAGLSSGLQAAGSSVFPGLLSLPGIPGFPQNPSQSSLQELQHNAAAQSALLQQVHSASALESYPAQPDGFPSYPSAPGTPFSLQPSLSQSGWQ

No constants are given. Whether binding was seen depends on the method and setting. In cells and extracts the contact can be indirect. Some entries that bind do so weakly or less than the wild type. Tags and fused reporters may be left off the sequences shown.

With “Proline and serine rich 1 (PROSER1) (from UniProt Q86XN7 1-944)”, the binding result in assay [1] and in assay [2] was “binds” in each case.

B1: O-linked N-acetylglucosamine transferase (OGT) (enzyme, UniProt O15294 1-1046)
chain: MASSVGNVADSTEPTKRMLSFQGLAELAHREYQAGDFEAAERHCMQLWRQEPDNTGVLLLLSSIHFQCRRLDRSAHFSTLAIKQNPLLAEAYSNLGNVYKERGQLQEAIEHYRHALRLKPDFIDGYINLAAALVAAGDMEGAVQAYVSALQYNPDLYCVRSDLGNLLKALGRLEEAKACYLKAIETQPNFAVAWSNLGCVFNAQGEIWLAIHHFEKAVTLDPNFLDAYINLGNVLKEARIFDRAVAAYLRALSLSPNHAVVHGNLACVYYEQGLIDLAIDTYRRAIELQPHFPDAYCNLANALKEKGSVAEAEDCYNTALRLCPTHADSLNNLANIKREQGNIEEAVRLYRKALEVFPEFAAAHSNLASVLQQQGKLQEALMHYKEAIRISPTFADAYSNMGNTLKEMQDVQGALQCYTRAIQINPAFADAHSNLASIHKDSGNIPEAIASYRTALKLKPDFPDAYCNLAHCLQIVCDWTDYDERMKKLVSIVADQLEKNRLPSVHPHHSMLYPLSHGFRKAIAERHGNLCLDKINVLHKPPYEHPKDLKLSDGRLRVGYVSSDFGNHPTSHLMQSIPGMHNPDKFEVFCYALSPDDGTNFRVKVMAEANHFIDLSQIPCNGKAADRIHQDGIHILVNMNGYTKGARNELFALRPAPIQAMWLGYPGTSGALFMDYIITDQETSPAEVAEQYSEKLAYMPHTFFIGDHANMFPHLKKKAVIDFKSNGHIYDNRIVLNGIDLKAFLDSLPDVKIVKMKCPDGGDNADSSNTALNMPVIPMNTIAEAVIEMINRGQIQITINGFSISNGLATTQINNKAATGEEVPRTIIVTTRSQYGLPEDAIVYCNFNQLYKIDPSTLQMWANILKRVPNSVLWLLRFPAVGEPNIQQYAQNMGLPQNRIIFSPVAPKEEHVRRGQLADVCLDTPLCNGHTTGMDVLWAGTPMVTMPGETLASRVAASQLTCLGCLELIAKNRQEYEDIAVKLGTDLEYLKKVRGKVWKQRISSPLFNTKQYTMELERLYLQMWEHYAAGNKPDHMIKPVEVTESA
Regarding B1, the binding entry in assay [1] and in assay [2] was “binds” in each case.

B2: PSPC1 (protein, UniProt Q8WXF1 1-523)
chain: MMLRGNLKQVRIEKNPARLRALESAVGESEPAAAAAMALALAGEPAPPAPAPPEDHPDEEMGFTIDIKSFLKPGEKTYTQRCRLFVGNLPTDITEEDFKRLFERYGEPSEVFINRDRGFGFIRLESRTLAEIAKAELDGTILKSRPLRIRFATHGAALTVKNLSPVVSNELLEQAFSQFGPVEKAVVVVDDRGRATGKGFVEFAAKPPARKALERCGDGAFLLTTTPRPVIVEPMEQFDDEDGLPEKLMQKTQQYHKEREQPPRFAQPGTFEFEYASRWKALDEMEKQQREQVDRNIREAKEKLEAEMEAARHEHQLMLMRQDLMRRQEELRRLEELRNQELQKRKQIQLRHEEEHRRREEEMIRHREQEELRRQQEGFKPNYMENREQEMRMGDMGPRGAINMGDAFSPAPAGNQGPPPMMGMNMNNRATIPGPPMGPGPAMGPEGAANMGTPMMPDNGAVHNDRFPQGPPSQMGSPMGSRTGSETPQAPMSGVGPVSGGPGGFGRGSQGGNFEGPNKRRRY
For B2, the binding result in assay [1] and in assay [2] was “binds” in each case.

B3: NONO (protein, UniProt Q15233 1-471)
chain: MQSNKTFNLEKQNHTPRKHHQHHHQQQHHQQQQQQPPPPPIPANGQQASSQNEGLTIDLKNFRKPGEKTFTQRSRLFVGNLPPDITEEEMRKLFEKYGKAGEVFIHKDKGFGFIRLETRTLAEIAKVELDNMPLRGKQLRVRFACHSASLTVRNLPQYVSNELLEEAFSVFGQVERAVVIVDDRGRPSGKGIVEFSGKPAARKALDRCSEGSFLLTTFPRPVTVEPMDQLDDEEGLPEKLVIKNQQFHKEREQPPRFAQPGSFEYEYAMRWKALIEMEKQQQDQVDRNIKEAREKLEMEMEAARHEHQVMLMRQDLMRRQEELRRMEELHNQEVQKRKQLELRQEEERRRREEEMRRQQEEMMRRQQEGFKGTFPDAREQEIRMGQMAMGGAMGINNRGAMPPAPVPAGTPAPPGPATMMPDGTLGLTPPTTERFGQAATMEGIGAIGGTPPAFNRAAPGAEFAPNKRRRY
Consider B3, for which the binding entry in assay [1] and in assay [2] was “binds” each time.

The values are drawn from paper PMC12447449.
